Paper PMC10734219
Results are given in words; binding and its absence hold for the method and conditions named. In cells and extracts the contact can be indirect. A result given as binding can be weak or reduced; the word gives no strength.

Protein sequences, listed by entry. Tags and fused reporters are not part of them. Lines headed by an entry give the natural chain unless they say otherwise; changes in a name come on top.
UniProt Q9X1L9: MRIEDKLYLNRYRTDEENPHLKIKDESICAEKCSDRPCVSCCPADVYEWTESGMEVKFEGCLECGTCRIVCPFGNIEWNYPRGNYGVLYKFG

Target: Thermotoga maritima EtfA (Tm1530), N-terminal 9x His tag (Thermotoga maritima) (UniProt Q9X1L6)
Assay: co-purification (His-tag affinity chromatography, then gel filtration); subunits co-expressed from one operon in E. coli; captured by the N-terminal His9 tag of EtfA on HisTrap FF (50 mM phosphate pH 7.5, 500 mM NaCl, imidazole), then Superdex 200 in 25 mM HEPES pH 7.5, 200 mM NaCl …; fractions checked by SDS-PAGE, subunits verified by MS/MS

Question: With “Thermotoga maritima EtfX (Tm1533) (from UniProt Q9X1L9)” as the substance, how does the binding read?
Answer: binds
